This note sets out measurements from PMC7801434.

Chains of the proteins cited; added tags and fusions are not shown. Lines headed by an entry give the natural chain unless they say otherwise; changes in a name come on top.
UniProt Q99538: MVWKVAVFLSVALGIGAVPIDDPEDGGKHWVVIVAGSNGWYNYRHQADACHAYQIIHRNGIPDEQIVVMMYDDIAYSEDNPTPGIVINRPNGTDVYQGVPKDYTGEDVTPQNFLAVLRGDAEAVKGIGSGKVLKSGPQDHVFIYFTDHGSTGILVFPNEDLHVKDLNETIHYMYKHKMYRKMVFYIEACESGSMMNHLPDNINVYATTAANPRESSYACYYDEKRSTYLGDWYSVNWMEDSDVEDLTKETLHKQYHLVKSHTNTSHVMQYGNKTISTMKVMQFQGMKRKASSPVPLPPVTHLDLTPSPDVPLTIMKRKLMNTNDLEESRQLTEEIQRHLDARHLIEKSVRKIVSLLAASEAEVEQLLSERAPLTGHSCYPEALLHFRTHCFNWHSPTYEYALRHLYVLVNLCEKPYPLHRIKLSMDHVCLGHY
UniProt P11142: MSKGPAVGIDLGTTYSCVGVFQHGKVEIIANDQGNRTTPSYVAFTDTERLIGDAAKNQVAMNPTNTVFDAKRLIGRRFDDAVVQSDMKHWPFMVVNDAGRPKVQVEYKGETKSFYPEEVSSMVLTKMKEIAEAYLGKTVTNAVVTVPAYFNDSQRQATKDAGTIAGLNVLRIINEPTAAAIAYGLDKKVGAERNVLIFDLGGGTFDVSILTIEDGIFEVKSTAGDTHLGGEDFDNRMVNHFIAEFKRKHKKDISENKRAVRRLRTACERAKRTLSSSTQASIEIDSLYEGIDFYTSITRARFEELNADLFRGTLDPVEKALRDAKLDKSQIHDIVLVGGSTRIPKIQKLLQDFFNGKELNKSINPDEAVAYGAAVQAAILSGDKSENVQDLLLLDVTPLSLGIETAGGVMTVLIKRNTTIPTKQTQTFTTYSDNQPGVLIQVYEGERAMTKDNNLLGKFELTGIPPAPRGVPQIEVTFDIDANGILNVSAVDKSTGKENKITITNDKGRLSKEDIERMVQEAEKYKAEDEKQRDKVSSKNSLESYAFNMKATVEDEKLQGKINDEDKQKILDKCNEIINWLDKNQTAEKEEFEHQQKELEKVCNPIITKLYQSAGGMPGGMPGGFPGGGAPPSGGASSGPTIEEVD

The target of this assay is legumain (human (endogenous in HK-2)) (UniProt Q99538). The experiment in a line: co-IP; HK-2 cell lysate incubated with an antibody against legumain (or control IgG) at 4 °C overnight, captured on protein G-sepharose, washed with PBS five times; western blotting for legumain, GPX4, Lamp-2a, HSC70 and HSP90; cells untreated, or under normoxic or hypoxic conditions for 24 h (interactions increased by hypoxia).

No constants are given. Whether binding was seen depends on the method and setting. Binding seen in cells or lysates may run through a third protein. Binding can be weak; no strength is given.

As to HSC70 (from UniProt P11142 1-646), the binding result is reported as “binds”.
